# Reference: the supplement of paper PMC7666118
# By UniProt entry, the sequences of proteins in these tests, tags left out. Where a name states a change or a piece, a line headed by the entry shows the natural chain unless it says otherwise.
# UniProt Q9H1E3: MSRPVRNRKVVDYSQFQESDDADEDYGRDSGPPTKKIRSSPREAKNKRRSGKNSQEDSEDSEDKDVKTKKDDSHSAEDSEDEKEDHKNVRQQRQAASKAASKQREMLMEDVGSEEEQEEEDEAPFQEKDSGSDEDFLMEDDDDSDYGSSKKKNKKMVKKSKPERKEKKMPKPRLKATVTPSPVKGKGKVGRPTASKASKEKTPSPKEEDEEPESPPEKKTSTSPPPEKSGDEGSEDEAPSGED
# UniProt Q6N069: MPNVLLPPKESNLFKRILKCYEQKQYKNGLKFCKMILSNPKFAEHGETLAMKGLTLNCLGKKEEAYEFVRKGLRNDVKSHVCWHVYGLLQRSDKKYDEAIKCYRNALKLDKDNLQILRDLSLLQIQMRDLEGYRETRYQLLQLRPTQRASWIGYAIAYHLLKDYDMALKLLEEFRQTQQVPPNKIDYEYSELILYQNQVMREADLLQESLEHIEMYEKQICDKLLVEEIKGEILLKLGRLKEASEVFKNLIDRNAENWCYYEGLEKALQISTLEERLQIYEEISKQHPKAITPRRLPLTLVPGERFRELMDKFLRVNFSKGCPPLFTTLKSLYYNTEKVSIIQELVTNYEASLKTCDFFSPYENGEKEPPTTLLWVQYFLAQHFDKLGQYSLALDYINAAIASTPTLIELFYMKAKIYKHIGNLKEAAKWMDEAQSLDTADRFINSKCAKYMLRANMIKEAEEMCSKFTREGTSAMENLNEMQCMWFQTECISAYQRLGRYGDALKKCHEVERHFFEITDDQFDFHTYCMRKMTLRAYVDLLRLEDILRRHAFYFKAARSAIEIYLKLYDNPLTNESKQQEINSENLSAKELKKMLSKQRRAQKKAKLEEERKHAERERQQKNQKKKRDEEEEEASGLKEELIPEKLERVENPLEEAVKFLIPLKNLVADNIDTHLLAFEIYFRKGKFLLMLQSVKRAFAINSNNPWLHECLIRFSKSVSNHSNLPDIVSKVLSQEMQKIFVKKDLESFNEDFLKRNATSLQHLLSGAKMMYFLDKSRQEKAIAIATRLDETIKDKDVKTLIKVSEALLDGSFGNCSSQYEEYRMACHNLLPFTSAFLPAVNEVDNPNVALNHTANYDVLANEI
# UniProt Q9UHQ1: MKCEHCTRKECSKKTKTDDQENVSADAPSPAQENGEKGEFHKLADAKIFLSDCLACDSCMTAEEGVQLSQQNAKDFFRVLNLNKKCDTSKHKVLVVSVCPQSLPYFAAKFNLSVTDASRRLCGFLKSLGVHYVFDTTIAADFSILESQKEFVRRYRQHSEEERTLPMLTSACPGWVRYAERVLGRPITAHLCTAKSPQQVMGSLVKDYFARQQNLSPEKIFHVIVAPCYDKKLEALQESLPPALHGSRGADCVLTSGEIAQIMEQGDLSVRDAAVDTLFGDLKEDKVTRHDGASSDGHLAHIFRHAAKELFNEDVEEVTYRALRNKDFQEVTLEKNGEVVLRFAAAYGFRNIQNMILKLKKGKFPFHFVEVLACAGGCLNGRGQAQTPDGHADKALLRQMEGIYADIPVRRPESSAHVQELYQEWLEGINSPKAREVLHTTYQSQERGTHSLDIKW
# UniProt Q56VL3: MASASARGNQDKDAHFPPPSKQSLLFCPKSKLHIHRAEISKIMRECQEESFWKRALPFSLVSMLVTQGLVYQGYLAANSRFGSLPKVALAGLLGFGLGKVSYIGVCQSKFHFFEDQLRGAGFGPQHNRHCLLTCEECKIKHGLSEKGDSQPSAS
# UniProt O75607: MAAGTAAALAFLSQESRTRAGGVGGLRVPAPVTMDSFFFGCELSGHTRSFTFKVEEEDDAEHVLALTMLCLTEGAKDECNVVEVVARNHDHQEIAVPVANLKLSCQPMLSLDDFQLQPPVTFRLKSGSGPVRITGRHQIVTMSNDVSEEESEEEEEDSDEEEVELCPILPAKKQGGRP
# UniProt Q96I59: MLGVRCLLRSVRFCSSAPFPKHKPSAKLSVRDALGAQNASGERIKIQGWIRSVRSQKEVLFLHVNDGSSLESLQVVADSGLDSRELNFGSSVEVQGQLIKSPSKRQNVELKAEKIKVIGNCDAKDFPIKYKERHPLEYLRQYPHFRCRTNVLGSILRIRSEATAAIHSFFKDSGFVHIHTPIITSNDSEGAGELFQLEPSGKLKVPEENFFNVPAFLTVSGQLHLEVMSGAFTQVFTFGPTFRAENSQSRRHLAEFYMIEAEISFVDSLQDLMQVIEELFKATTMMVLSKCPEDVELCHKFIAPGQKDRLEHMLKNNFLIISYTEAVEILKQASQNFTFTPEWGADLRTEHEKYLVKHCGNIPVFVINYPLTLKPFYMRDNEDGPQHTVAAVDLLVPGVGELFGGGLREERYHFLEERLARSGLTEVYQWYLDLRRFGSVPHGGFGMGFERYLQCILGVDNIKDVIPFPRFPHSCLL
# UniProt Q9NPE3: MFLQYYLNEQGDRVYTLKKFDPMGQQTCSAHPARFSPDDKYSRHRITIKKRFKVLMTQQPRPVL
# UniProt Q9BXS6: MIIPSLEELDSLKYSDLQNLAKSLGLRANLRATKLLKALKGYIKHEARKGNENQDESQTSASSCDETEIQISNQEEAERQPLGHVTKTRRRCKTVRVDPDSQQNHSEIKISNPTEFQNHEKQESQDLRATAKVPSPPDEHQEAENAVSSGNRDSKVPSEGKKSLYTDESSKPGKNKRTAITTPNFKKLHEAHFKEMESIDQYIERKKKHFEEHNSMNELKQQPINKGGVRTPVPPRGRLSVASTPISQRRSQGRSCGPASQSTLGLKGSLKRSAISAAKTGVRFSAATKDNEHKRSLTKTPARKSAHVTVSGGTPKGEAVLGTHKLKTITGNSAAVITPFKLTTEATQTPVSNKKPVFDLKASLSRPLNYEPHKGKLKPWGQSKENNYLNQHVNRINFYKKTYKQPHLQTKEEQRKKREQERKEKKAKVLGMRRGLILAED
# UniProt O43920, whole entry: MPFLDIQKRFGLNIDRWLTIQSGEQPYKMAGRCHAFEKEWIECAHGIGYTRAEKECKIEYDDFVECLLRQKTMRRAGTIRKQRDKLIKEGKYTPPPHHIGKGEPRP
# The other results are listed elsewhere or left out.
# Compound: COc1ccc(Cn2ccc3cc(C)c(C(=O)NO)cc32)cc1
# Experiment: dose-dependent thermal stabilisation call (2D-TPP, DLPTP, 10% FDR) (binary (1 = stabilised)); higher = stabilised by the compound
# Conditions: system: HL-60 intact cells; concentration range 0.04-10 µM
# Description: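 2D thermal proteome profiling in intact HL-60 cells treated with BRD-3811 (0, 0.04, 0.29, 2, 10 uM) for 90 min at 37 C, then heated 3 min at one of 12 temperatures (42-63.9 C). Soluble protein was quantified by TMT10 MS. The value is the DLPTP call of the paper: dose-dependent thermal stabilisation over all temperatures at 10% FDR (F-test of a dose-response against a flat model); one experiment, one call per tested protein.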
row,Target,dose-dependent thermal stabilisation call
1,NUCKS1 (UniProt Q9H1E3),inactive: 0
2,NARG1L (UniProt Q6N069),inactive: 0
3,NARF (UniProt Q9UHQ1),inactive: 0
4,OCIAD2 (UniProt Q56VL3),inactive: 0
5,NPM3 (UniProt O75607),inactive: 0
6,NARS2 (UniProt Q96I59),inactive: 0
7,NOP10 (UniProt Q9NPE3),inactive: 0
8,NUSAP1 (UniProt Q9BXS6),inactive: 0
9,NDUFS5 (UniProt O43920),inactive: 0
